From publication PMC5378613

Protein sequences, listed by entry. Tags and fused reporters are not part of them.
UniProt P61604: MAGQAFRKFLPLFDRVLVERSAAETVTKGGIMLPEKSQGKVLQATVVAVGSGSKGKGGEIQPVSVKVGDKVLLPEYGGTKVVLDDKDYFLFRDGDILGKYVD

T1: ID4 (inhibitor of differentiation 4), endogenous in LNCaP cells (human (endogenous in LNCaP)) (UniProt P47928)
T1 sequence: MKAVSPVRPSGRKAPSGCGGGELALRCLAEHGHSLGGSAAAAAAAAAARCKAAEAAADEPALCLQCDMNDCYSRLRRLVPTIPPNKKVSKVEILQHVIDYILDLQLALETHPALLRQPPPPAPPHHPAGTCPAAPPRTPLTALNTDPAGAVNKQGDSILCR


Tests used:
[1] = target: T1, ID4 (inhibitor of differentiation 4), endogenous in LNCaP cells (human (endogenous in LNCaP)); assay: affinity purification with mass spectrometry; co-immunoprecipitation with an ID4-specific antibody on protein A magnetic beads from L+ns (LNCaP) cells; partners identified by LC-MS/MS on LTQ-Orbitrap
[2] = target: T1, ID4 (inhibitor of differentiation 4), endogenous in LNCaP cells (human (endogenous in LNCaP)); assay: as above; remark: listed apart in the source

Row | binding [1] | binding [2] | Molecule
1 | binds |  | Hsp10, endogenous in LNCaP cells (from UniProt P61604 1-102)
2 |  | binds | FKBP52 (52-kDa FK506-binding protein), endogenous in prostate cancer cells (protein, UniProt Q02790 1-459) MTAEEMKATESGAQSAPLPMEGVDISPKQDEGVLKVIKREGTGTEMPMIGDRVFVHYTGWLLDGTKFDSSLDRKDKFSFDLGKGEVIKAWDIAIATMKVGEVCHITCKPEYAYGSAGSPPKIPPNATLVFEVELFEFKGEDLTEEEDGGIIRRIQTRGEGYAKPNEGAIVEVALEGYYKDKLFDQRELRFEIGEGENLDLPYGLERAIQRMEKGEHSIVYLKPSYAFGSVGKEKFQIPPNAELKYELHLKSFEKAKESWEMNSEEKLEQSTIVKERGTVYFKEGKYKQALLQYKKIVSWLEYESSFSNEEAQKAQALRLASHLNLAMCHLKLQAFSAAIESCNKALELDSNNEKGLFRRGEAHLAVNDFELARADFQKVLQLYPNNKAAKTQLAVCQQRIRRQLAREKKLYANMFERLAEEENKAKAEASSGDHPTDTEMKEEQKSNTAGSQSQVETEA

Where two headings read alike, the source gives them in different places. No constants are given. Whether binding was seen depends on the method and setting. In cells and extracts the contact can be indirect. These calls come from enrichment with a bait or labelling near it, and not all partners need be listed.
